This note sets out measurements from article PMC11205155.

No constants are given. Whether binding was seen depends on the method and setting.

This assay deals with T1, Rad10 of Beauveria bassiana (Beauveria bassiana) (UniProt J4UQI9).
T1 sequence: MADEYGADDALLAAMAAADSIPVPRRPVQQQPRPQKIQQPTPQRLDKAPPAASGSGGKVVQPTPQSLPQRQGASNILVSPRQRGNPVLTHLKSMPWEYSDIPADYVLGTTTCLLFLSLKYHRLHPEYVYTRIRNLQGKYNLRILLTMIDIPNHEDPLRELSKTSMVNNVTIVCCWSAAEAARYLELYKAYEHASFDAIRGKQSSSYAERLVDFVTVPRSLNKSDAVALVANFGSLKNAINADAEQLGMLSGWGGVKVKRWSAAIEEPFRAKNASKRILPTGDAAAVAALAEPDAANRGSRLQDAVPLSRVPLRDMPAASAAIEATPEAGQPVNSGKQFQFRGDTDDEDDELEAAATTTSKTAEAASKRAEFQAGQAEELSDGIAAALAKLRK
Nature of the assay: two-hybrid; AD fusions (pGADT7) in S. cerevisiae Y187 mated with BD fusions (pGBKT7) in Y2HGold; diploids spotted at 5 x 10^2, 5 x 10^3 and 5 x 10^4 cells on double-dropout (SDM/-Leu/-Trp/X-α-Gal/AbA) and quadruple-dropout (SDM/-Leu/-Trp/-Ade/-His/X-α-Gal/AbA) plates, 3 days at 30 °C.
Turning to Rad5 ortholog of Beauveria bassiana, the binding entry is on record as “no binding”.

With Rad16A of Beauveria bassiana, the binding result is “no binding”.

With Rad16B of Beauveria bassiana, the binding entry was “no binding”.
